Source: PubChem BioAssay
Several values for one entry are separate records, joined by “and”; a condition that tells them apart may be missing. Identical values can stand only once. This is one part of the list. Shown are side measurements of this screen, not its main read-out; they come without a call. For some of these results: Most of these compounds were active or inconclusive in the main read-out, so they are no random draw.

assay: enhancers of SMN2 over SMN1 splicing, cell-based, SMN2/SMN1 luciferase reporters (AID 1598); settings: SMN2 vs SMN1 luciferase splicing reporter cells, at 10 µM; SMN1 luciferase ratio: measured here: SMN1 luciferase reporter average; SMN2 luciferase ratio: measured here: SMN2 luciferase reporter average, stronger effect = higher value

Compound	SMN1 luciferase ratio	SMN2 luciferase ratio
Clc1ccc(CSC(Cn2ccnc2)c2ccc(Cl)cc2Cl)cc1 (centres undefined)	0.9	1
CN1C(=O)C(O)N=C(c2ccccc2)c2cc(Cl)ccc21 (centres undefined)	0.8	0.84
C[C@H]1C(=O)O[C@@H]2CCN3CC=C(COC(=O)[C@](C)(O)[C@]1(C)O)[C@H]23	0.97	0.93
CCC(C)C(=O)O[C@H]1[C@H](O)C2C(CN3CC(C)CCC3[C@@]2(C)O)C2C[C@]34O[C@]5(O)C(OC(=O)C(C)(O)C(C)O)CC[C@@]3(C)C5C(OC(C)=O)[C@@H](OC(C)=O)C4[C@@]21O (some centres undefined)	0.96	0.85
CC1CC[C@@]2(NC1)OC1CC3C4CC=C5CC(O)CCC5(C)C4CCC3(C)C1[C@@H]2C (some centres undefined)	0.94	1.01
Clc1ccc(C(OCCN2CCCCC2)c2ccccc2)cc1 (centres undefined)	0.94	0.95
N#C/C(=C\c1ccc(O)cc1)C(=O)O	0.98	1.01
CN1CC(CNC(=O)OCc2ccccc2)CC2c3cccc4c3c(cn4C)CC21 (centres undefined)	0.81	0.88
CCOC(=O)C1(c2ccccc2)CCN(C)CC1	0.9	0.83
O=C1Nc2ccc(Cl)cc2C(c2ccccc2)=NC1O (centres undefined)	0.97	1.11
CNC(C)Cc1ccccc1 (centres undefined)	0.87	0.89
CC(C)[N+](C)(CCC(C(N)=O)(c1ccccc1)c1ccccc1)C(C)C	0.94	0.95
CCCC(C)C1(CC)C(=O)NC(=O)NC1=O (centres undefined)	0.93	0.89
NCCC(O)C(=O)N[C@@H]1C[C@H](N)[C@@H](O[C@H]2O[C@H](CN)[C@@H](O)[C@H](O)[C@H]2N)[C@H](OC2O[C@H](CO)[C@H](O)[C@H]2O)[C@H]1O (some centres undefined)	0.84	0.94

assay: protection against mutant huntingtin cytotoxicity, PC12 cells, LDH release (AID 1610); settings: PC12 mutant huntingtin toxicity, final LDH at 4 uM, stronger effect = lower value

Compound	normalised LDH release
CO[C@H]1[C@H](O)[C@@H](O[C@H]2CC[C@]3(C=O)C4CC[C@]5(C)[C@@H](C6=CC(=O)OC6)CC[C@]5(O)C4CC[C@@H]3C2)O[C@@H](C)[C@@H]1O (some centres undefined)	0.732
COc1ccc(C[C@H]2NC[C@H](O)[C@H]2OC(C)=O)cc1	1.14
CC(=O)O[C@H]1C[C@H](O[C@H]2[C@@H](O)C[C@H](O[C@H]3[C@@H](O)C[C@H](O[C@H]4CC[C@@]5(C)C(CCC6C5C[C@@H](O)[C@]5(C)[C@@H](C7=CC(=O)OC7)CC[C@]65O)C4)O[C@@H]3C)O[C@@H]2C)O[C@H](C)[C@H]1O[C@@H]1O[C@H](CO)[C@@H](O)[C@H](O)[C@H]1O (some centres undefined)	1.07
NCC(O)c1ccc(O)cc1 (centres undefined)	0.969
C[C@@H]([C@H](O)c1ccccc1)N(C)C	1.13
CCCC(C)(COC(N)=O)COC(=O)NC(C)C (centres undefined)	0.983
Cc1cc2c(C(C)C)c(O)c(O)c(C=O)c2c(O)c1-c1c(C)cc2c(C(C)C)c(O)c(O)c(C=O)c2c1O	1.03
CCC1(CC)C(=O)C=CNC1=O	0.874 and 1.29
C[C@]12CCC3C(CC[C@]4(O)C[C@@H](O)CC[C@]34C=O)[C@@]1(O)CCC2C1=CC(=O)OC1 (some centres undefined)	0.871
C[N+](C)(C)CC(=O)[O-]	0.928
C/C=C(\C)C(=O)O[C@H]1C[C@@H](OC(C)=O)[C@@]2(C(=O)OC)CO[C@@H]3C2[C@]12CO[C@](O)(C(=O)OC)[C@H]2[C@](C)(C12O[C@@]1(C)[C@H]1C[C@@H]2OC2OC=C[C@@]21O)[C@@H]3O (some centres undefined)	1.02
CC[C@H]1CN2CCC1C[C@@H]2[C@@H](O)c1ccnc2ccc(OC)cc12 (some centres undefined)	0.987
O=C(O)CCCc1ccc(N(CCCl)CCCl)cc1	0.846
NC(=O)CN1CCCC1=O	1.81
CCC1(c2ccccc2)C(=O)NC(=O)NC1=O	1.06
CCN1C[C@@]2(COC)C3[C@@H](OC)[C@H]4[C@@H]1[C@]3(C(OC)C[C@H]2O)C1C[C@@]2(O)[C@H](OC(=O)c3ccccc3)C1[C@]4(OC(C)=O)[C@@H](O)[C@@H]2OC (some centres undefined)	0.961
CC(C)CC(NC(=O)C(Cc1ccccc1)NC(=O)CNC(=O)CNC(=O)C(N)Cc1ccc(O)cc1)C(=O)O (centres undefined)	0.98
OC1CCCCC1N1CCC(c2ccccc2)CC1 (centres undefined)	0.377

Compound	normalised LDH release
C=C[C@H]1CN2CC[C@H]1C[C@@H]2[C@@H](OC(=O)OCC)c1ccnc2ccc(OC)cc12	0.693
CN1CC[C@]23c4c5ccc(O)c4O[C@H]2C(=O)CCC3[C@H]1C5 (some centres undefined)	0.931
CC[C@@H]1/C=C/C=C/C[C@H](C)[C@@H](O)[C@](C)(O)C(=O)[C@H](C)[C@@H](O)[C@H](C)C(=O)[C@H](C)[C@@H](O)[C@H](C)/C=C/C(=O)O[C@H]2[C@@H](C)[C@@H](CC1)O[C@@]1(CC[C@@H](C)[C@@H](C[C@H](C)O)O1)[C@@H]2C	0.382
CC[C@@]1(O)C[C@H](O[C@H]2C[C@H](N(C)C)[C@H](O)[C@H](C)O2)c2c(cc3c(c2O)C(=O)c2c(O)cccc2C3=O)[C@H]1C(=O)OC	0.823
Clc1ccc(CSC(Cn2ccnc2)c2ccc(Cl)cc2Cl)cc1 (centres undefined)	0.904
CN1C(=O)C(O)N=C(c2ccccc2)c2cc(Cl)ccc21 (centres undefined)	0.774
C[C@H]1C(=O)O[C@@H]2CCN3CC=C(COC(=O)[C@](C)(O)[C@]1(C)O)[C@H]23	0.427
CCC(C)C(=O)O[C@H]1[C@H](O)C2C(CN3CC(C)CCC3[C@@]2(C)O)C2C[C@]34O[C@]5(O)C(OC(=O)C(C)(O)C(C)O)CC[C@@]3(C)C5C(OC(C)=O)[C@@H](OC(C)=O)C4[C@@]21O (some centres undefined)	1.15
CC1CC[C@@]2(NC1)OC1CC3C4CC=C5CC(O)CCC5(C)C4CCC3(C)C1[C@@H]2C (some centres undefined)	0.805
Clc1ccc(C(OCCN2CCCCC2)c2ccccc2)cc1 (centres undefined)	0.747
N#C/C(=C\c1ccc(O)cc1)C(=O)O	1.51
CN1CC(CNC(=O)OCc2ccccc2)CC2c3cccc4c3c(cn4C)CC21 (centres undefined)	0.659
CCOC(=O)C1(c2ccccc2)CCN(C)CC1	0.914
O=C1Nc2ccc(Cl)cc2C(c2ccccc2)=NC1O (centres undefined)	1.05
CNC(C)Cc1ccccc1 (centres undefined)	0.986
CC(C)[N+](C)(CCC(C(N)=O)(c1ccccc1)c1ccccc1)C(C)C	0.234
CCCC(C)C1(CC)C(=O)NC(=O)NC1=O (centres undefined)	0.845
NCCC(O)C(=O)N[C@@H]1C[C@H](N)[C@@H](O[C@H]2O[C@H](CN)[C@@H](O)[C@H](O)[C@H]2N)[C@H](OC2O[C@H](CO)[C@H](O)[C@H]2O)[C@H]1O (some centres undefined)	0.622
